This note sets out measurements from patent publication US20210101970A1.

No constants are given. Whether binding was seen depends on the method and setting. For some assays here: A result given as binding can be weak or reduced; the word gives no strength.

The target of one assay is Insulin. Put plainly: DELFIA polyreactivity plate assay.
For the next assay, the target named is XC251. Put plainly: FACS on cells expressing the CXCR5 construct.
The target of a further assay is XC252. The assay is described as follows: FACS on cells expressing the CXCR5 construct.
A further assay concerns the target XC254. Put plainly: FACS on cells expressing the CXCR5 construct.

B1: Afucosyl humanized 11G2 154/155 (antibody, human IgG1, kappa, V domains shown)
VH: EVQLVESGGGLVQPGGSLRLSCAASGFTFTDFYMSWVRQAPGKGLEWVGFIRNKANGYTTEYSASVKGRFTISRDNAKNSLYLQMNSLRAEDTAVYYCARVYGSTLHYWGQGTLVTVSS
VL: DIQMTQSPSSLSASVGDRVTITCRASESVEYHGTSLMHWYQQKPGKAPKLLIYAASNVESGVPSRFSGSGSGTDFTLTISSLQPEDFATYYCQQSRKVPWTFGQGTKVEIKR
modifications: afucosylated Fc glycan (Asn297)
Consider B1, for which the binding entry is reported as “no binding” with Insulin, “binds” with XC251, “binds” with XC252 and “binds” with XC254.

B2: Humanized 11G2 154/155 (antibody, human IgG1, kappa, V domains shown)
VH: EVQLVESGGGLVQPGGSLRLSCAASGFTFTDFYMSWVRQAPGKGLEWVGFIRNKANGYTTEYSASVKGRFTISRDNAKNSLYLQMNSLRAEDTAVYYCARVYGSTLHYWGQGTLVTVSS
VL: DIQMTQSPSSLSASVGDRVTITCRASESVEYHGTSLMHWYQQKPGKAPKLLIYAASNVESGVPSRFSGSGSGTDFTLTISSLQPEDFATYYCQQSRKVPWTFGQGTKVEIKR
B2: in the assay with Insulin, the binding entry was “no binding (tested: 100 nM)”.

B3: 16D7 (reference antibody) (antibody, human IgG1, kappa, V domains shown)
VH: QVQLKESGPGLVAPSESLSITCTVSGFSLIDYGVNWIRQPPGKGLEWLGVIWGDGTTYYNPSLKSRLSISKDNSKSQVFLKVTSLTTDDTAMYYCARIVYWGQGTLVTVSA
VL: DIVMTQAAPSVAVTPGASVSISCRSSKSLLHSSGKTYLYWFLQRPGQSPQLLIYRLSSLASGVPDRFSGSGSGTAFTLRISRVEAEDVGVYYCMQHLEYPYTFGGGTKLEIKR
As for B3, the binding result in the assay with XC251, in the assay with XC252 and in the assay with XC254 was “binds” in each case.
